PubChem BioAssay AID1224830 | NIAID | 2016

Assay: 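Regulators of TLR4 signalling towards TNF-alpha in macrophage-like cells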 (primary screen)
Cell system: human THP-1 monocytic leukaemia cells, TNF dual-luciferase reporter clone, PMA-differentiated to macrophage-like cells
Reagent: siRNA pool against human genes, 50 nM
Duration: LPS for 4 h, given about 3 days after siRNA transfection
Treatment: bacterial LPS (TLR4 ligand), 10 ng/ml
Measured: 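Ratio of firefly to renilla light, scaled to the plate median and expressed as a robust z-score per replicate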
Scale: TNF reporter robust z-score: higher = stronger TNF reporter response to LPS
Rule for the call: 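Each well counts as active if its z-score is over 2.8 or under -1.5; controls are left without a call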
This is one part, drawn at random, of about 18,000 reagents tested. In the full data, about 2,900 (16%) were called active. 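Calls are made per well; low scores hint the gene aids the LPS response, high scores that it dampens it.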 Repeated entries: four replicate wells of each siRNA pool.

The opening 2 entries, to show the layout:
SCOC — TNF reporter robust z-score: 0.12; activity call: inactive
SCOC — TNF reporter robust z-score: -0.2; activity call: inactive

Results, from the first entry:
SCOC — TNF reporter robust z-score: 0.12; activity call: inactive
SCOC — TNF reporter robust z-score: -0.2; activity call: inactive
SCOC — TNF reporter robust z-score: -1.08; activity call: inactive
SCOC — TNF reporter robust z-score: -0.05; activity call: inactive
KCNJ14 — TNF reporter robust z-score: 0.26; activity call: inactive
KCNJ14 — TNF reporter robust z-score: 1.86; activity call: inactive
KCNJ14 — TNF reporter robust z-score: -0.09; activity call: inactive
KCNJ14 — TNF reporter robust z-score: 1.04; activity call: inactive
PRKAG3 — TNF reporter robust z-score: -1.33; activity call: inactive
PRKAG3 — TNF reporter robust z-score: -0.99; activity call: inactive
PRKAG3 — TNF reporter robust z-score: -0.59; activity call: inactive
PRKAG3 — TNF reporter robust z-score: -0.54; activity call: inactive
ADRA1B — TNF reporter robust z-score: 2.64; activity call: inactive
ADRA1B — TNF reporter robust z-score: 1.89; activity call: inactive
ADRA1B — TNF reporter robust z-score: 1.68; activity call: inactive
ADRA1B — TNF reporter robust z-score: 3.53; activity call: active
VSIG4 — TNF reporter robust z-score: -1.43; activity call: inactive
VSIG4 — TNF reporter robust z-score: -0.61; activity call: inactive
VSIG4 — TNF reporter robust z-score: -0.81; activity call: inactive
VSIG4 — TNF reporter robust z-score: -0.77; activity call: inactive
